{"source": "patent US20080249129A1", "about": "“Compositions and Methods for Treatment of Protein Misfolding Diseases” (priority 2004, published 2008)", "key": {"[1]": {"tested_on": "yeast expressing one copy of alpha synuclein", "assay_type": "cell-based", "description": "(§1) Phenotype MicroArray™ (Biolog, Inc., Hayward, Calif.) was employed to evaluate the effects of various compounds in yeast expressing one or two copies of alpha synuclein."}, "[2]": {"tested_on": "yeast expressing two copies of alpha synuclein", "assay_type": "cell-based", "description": "An exemplary aS-expressing yeast cell for use in a growth rescue screen described herein is yeast expressing two copies of aS, as described in Outeiro et al. (2003) Science 302:1772. An exemplary htt-expressing strain for use in a growth rescue screen described herein is yeast expressing a fusion protein comprising a FLAG tag and an expanded htt polyQ (103) domain, as described in Meriin et al. (2002) J. Cell Biol. 158:591.\nas §1"}}, "note": "Where two headings read alike, the source gives them in different places. At least one compound was matched to its structure with a doubt left."}
{"smiles": "CCCCCCCCCCCCCCCC[n+]1ccccc1", "note": "[cetylpyridinium chloride]", "values": [{"measurement": "effect on alpha synuclein-mediated toxicity", "setting": "[1]", "result": "enhancers of alpha synuclein-mediated toxicity"}]}
{"smiles": "CN(C)[C@@H]1C(O)=C(C(N)=O)C(=O)[C@@]2(O)C(O)=C3C(=O)c4c(O)cccc4[C@@](C)(O)[C@H]3C[C@@H]12", "note": "[tetracycline]", "values": [{"measurement": "effect on alpha synuclein-mediated toxicity", "setting": "[2]", "result": "suppressors of alpha synuclein-mediated toxicity"}]}
{"smiles": "CCN(CC)C(=S)SSC(=S)N(CC)CC", "note": "[disulfiram]", "values": [{"measurement": "effect on alpha synuclein-mediated toxicity", "setting": "[1]; yeast expressing one copy of alpha synuclein, Phenotype MicroArray", "result": "enhancers of alpha synuclein-mediated toxicity"}]}
